According to paper doi:10.64898/2025.12.09.693153:
These are yes or no findings as the source states them, for the method shown. For some assays here: Binding seen in cells or lysates may run through a third protein. Some results given as binding are weak or reduced against the parent protein; the word gives no strength. Sequences can lack the tags named with a protein.

T1: AtATG8a(ΔUDS), yeast two-hybrid fusion (Arabidopsis thaliana) (UniProt Q8LEM4)
T1 sequence: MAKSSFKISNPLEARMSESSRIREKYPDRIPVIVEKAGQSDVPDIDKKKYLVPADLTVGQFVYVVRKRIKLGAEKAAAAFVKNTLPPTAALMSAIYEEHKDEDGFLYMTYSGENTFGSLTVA

T2: AtNBR1, yeast two-hybrid fusion (Arabidopsis thaliana) (UniProt Q9SB64)
T2 sequence: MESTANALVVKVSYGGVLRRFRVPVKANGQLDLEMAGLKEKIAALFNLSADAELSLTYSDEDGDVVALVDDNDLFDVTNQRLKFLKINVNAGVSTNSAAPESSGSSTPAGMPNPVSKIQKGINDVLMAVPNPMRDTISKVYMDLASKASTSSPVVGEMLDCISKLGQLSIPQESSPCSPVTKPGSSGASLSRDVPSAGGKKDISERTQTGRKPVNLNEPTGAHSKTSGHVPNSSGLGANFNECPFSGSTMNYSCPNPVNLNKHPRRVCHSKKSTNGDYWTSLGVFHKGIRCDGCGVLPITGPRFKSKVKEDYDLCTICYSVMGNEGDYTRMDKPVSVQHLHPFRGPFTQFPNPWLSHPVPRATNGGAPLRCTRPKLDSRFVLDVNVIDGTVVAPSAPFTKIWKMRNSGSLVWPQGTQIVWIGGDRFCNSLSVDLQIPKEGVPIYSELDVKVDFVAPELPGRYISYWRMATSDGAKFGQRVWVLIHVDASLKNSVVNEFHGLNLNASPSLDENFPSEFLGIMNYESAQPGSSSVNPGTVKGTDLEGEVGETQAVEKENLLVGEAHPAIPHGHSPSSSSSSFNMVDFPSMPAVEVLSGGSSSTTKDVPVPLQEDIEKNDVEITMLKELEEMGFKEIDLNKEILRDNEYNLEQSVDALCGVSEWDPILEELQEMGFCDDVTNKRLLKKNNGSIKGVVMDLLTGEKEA

T3: AtATG8a, yeast two-hybrid fusion (Arabidopsis thaliana) (UniProt Q8LEM4)
T3 sequence: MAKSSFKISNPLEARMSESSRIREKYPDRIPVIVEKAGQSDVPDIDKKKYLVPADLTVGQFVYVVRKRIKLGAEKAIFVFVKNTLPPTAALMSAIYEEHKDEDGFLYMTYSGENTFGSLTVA

T4: cLUC-ATG8a(ΔUDS) (Arabidopsis thaliana) (UniProt Q8LEM4)
T4 sequence: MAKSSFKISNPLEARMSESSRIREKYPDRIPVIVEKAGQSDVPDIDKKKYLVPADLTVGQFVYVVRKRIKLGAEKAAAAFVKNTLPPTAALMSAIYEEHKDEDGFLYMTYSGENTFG

T5: cLUC-AtATG8a (Arabidopsis thaliana) (UniProt Q8LEM4)
T5 sequence: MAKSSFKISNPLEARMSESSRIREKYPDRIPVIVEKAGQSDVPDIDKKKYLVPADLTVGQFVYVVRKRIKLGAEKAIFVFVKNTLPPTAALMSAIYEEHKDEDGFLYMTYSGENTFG

T6: AtNBR1, luciferase complementation fusion (Arabidopsis thaliana) (UniProt Q9SB64)
T6 sequence: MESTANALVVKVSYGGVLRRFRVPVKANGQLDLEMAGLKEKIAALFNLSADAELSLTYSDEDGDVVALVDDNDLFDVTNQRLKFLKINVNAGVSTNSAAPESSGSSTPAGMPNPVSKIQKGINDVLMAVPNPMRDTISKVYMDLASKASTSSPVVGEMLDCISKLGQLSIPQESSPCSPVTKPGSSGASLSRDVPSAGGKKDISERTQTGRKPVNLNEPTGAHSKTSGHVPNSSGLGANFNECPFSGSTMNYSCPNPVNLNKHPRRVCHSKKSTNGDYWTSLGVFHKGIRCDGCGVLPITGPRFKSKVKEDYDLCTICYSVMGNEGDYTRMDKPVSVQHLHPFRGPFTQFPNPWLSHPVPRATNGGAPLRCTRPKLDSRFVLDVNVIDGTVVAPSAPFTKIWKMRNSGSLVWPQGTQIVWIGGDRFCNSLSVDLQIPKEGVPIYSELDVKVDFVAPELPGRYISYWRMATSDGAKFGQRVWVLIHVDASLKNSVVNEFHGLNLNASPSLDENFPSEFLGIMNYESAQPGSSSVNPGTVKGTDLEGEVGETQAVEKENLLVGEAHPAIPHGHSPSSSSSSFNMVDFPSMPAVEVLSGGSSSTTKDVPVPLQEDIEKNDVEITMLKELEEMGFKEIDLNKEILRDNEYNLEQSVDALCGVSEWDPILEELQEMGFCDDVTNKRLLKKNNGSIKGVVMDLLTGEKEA


Legend:
[1] = biological target: T1, AtATG8a(ΔUDS), yeast two-hybrid fusion (Arabidopsis thaliana); experiment: two-hybrid
[2] = biological target: T2, AtNBR1, yeast two-hybrid fusion (Arabidopsis thaliana); experiment: two-hybrid
[3] = biological target: T3, AtATG8a, yeast two-hybrid fusion (Arabidopsis thaliana); experiment: two-hybrid
[4] = biological target: AtEBM (Arabidopsis thaliana endo-β-mannosidase), yeast two-hybrid fusion (Arabidopsis thaliana) (UniProt Q75W54); experiment: two-hybrid
[5] = biological target: AtEBM-nLUC (Arabidopsis thaliana) (UniProt Q75W54); experiment: split reporter
[6] = biological target: T4, cLUC-ATG8a(ΔUDS) (Arabidopsis thaliana); experiment: split reporter
[7] = biological target: T5, cLUC-AtATG8a (Arabidopsis thaliana); experiment: split reporter
[8] = biological target: T6, AtNBR1, luciferase complementation fusion (Arabidopsis thaliana); experiment: split reporter

Binder | binding [1] | binding [2] | binding [3] | binding [4] | binding [5] | binding [6] | binding [7] | binding [8]
AtEBM (Arabidopsis thaliana endo-β-mannosidase), yeast two-hybrid fusion (protein, UniProt Q75W54 1-944) MAEIGKTVLDFGWIAARSTEVDVNGVQLTTTNPPAISSESRWMEAAVPGTVLGTLVKNKAIPDPFYGLENEAITDIADSGRDYYTFWFFTKFQCQRLLNQYVHLNFRAINYSAQVFVNGHKTELPKGMFRRHTLDVTDILHPESNLLALIVHPPDHPGTIPPEGGQGGDHEIGKDVAAQYVQGWDWICPIRDRNTGIWDEVSISVTGPVRIIDPHLVSTFFDDYKRAYLHVTAELENKSTWNTECSVNIQITAELENGVCLVEHLQTENVLIPAQGRIQHTFKPLYFYKPELWWPNGMGKQNLYDILITVVVNEFGESDSWMQPFGFRKIESVIDSVTGGRLFKINGEPIFIRGGNWILSDGLLRLSKERYRTDIKFHADMNMNMIRCWGGGLAERPEFYHFCDIYGLLVWQEFWITGDVDGRGVPVSNPNGPLDHELFLLCARDTVKLLRNHPSLALWVGGNEQVPPKDINEALKQDLRLHSYFETQLLSDKDSDPSVYLDGTRVYIQGSMWDGFADGKGNFTDGPYEIQYPEDFFKDTYYKYGFNPEVGSVGMPVAETIRATMPPEGWTIPLFKKGLDGFIKEVPNRMWDYHKYIPYSNPGKVHDQILMYGTPENLDDFCLKAQLVNYIQYRALFEGWSSQMWTKYTGVLIWKNQNPWTGLRGQFYDHLLDQTASFYGCRSAAEPVHVQLNLASYFVEVVNTTSKELSDVAIEASVWDLDGNCPYYKVFKIVSAPPKKVVKISEFKYPKAANPKHVYFLLLKLYTVSDKAVISRNFYWLHLPGKNYTLLEPYRKKQIPLKITCNAVMVGSRYELEVNVHNTSRANLAKNVVQEDEKRDLGLLQKLFSRCVVSADSNRGLKVVEMKGSDSGVAFFLRFSVHNAETEKQDTRILPVHYSDNYFSLVPGESMSFKISFAAPTGMKKSPRVMLQGWNYPDRFSVFG | binds | no binding | binds | no binding |  |  |  | 
AtEBM-nLUC (protein, UniProt Q75W54 1-944) MAEIGKTVLDFGWIAARSTEVDVNGVQLTTTNPPAISSESRWMEAAVPGTVLGTLVKNKAIPDPFYGLENEAITDIADSGRDYYTFWFFTKFQCQRLLNQYVHLNFRAINYSAQVFVNGHKTELPKGMFRRHTLDVTDILHPESNLLALIVHPPDHPGTIPPEGGQGGDHEIGKDVAAQYVQGWDWICPIRDRNTGIWDEVSISVTGPVRIIDPHLVSTFFDDYKRAYLHVTAELENKSTWNTECSVNIQITAELENGVCLVEHLQTENVLIPAQGRIQHTFKPLYFYKPELWWPNGMGKQNLYDILITVVVNEFGESDSWMQPFGFRKIESVIDSVTGGRLFKINGEPIFIRGGNWILSDGLLRLSKERYRTDIKFHADMNMNMIRCWGGGLAERPEFYHFCDIYGLLVWQEFWITGDVDGRGVPVSNPNGPLDHELFLLCARDTVKLLRNHPSLALWVGGNEQVPPKDINEALKQDLRLHSYFETQLLSDKDSDPSVYLDGTRVYIQGSMWDGFADGKGNFTDGPYEIQYPEDFFKDTYYKYGFNPEVGSVGMPVAETIRATMPPEGWTIPLFKKGLDGFIKEVPNRMWDYHKYIPYSNPGKVHDQILMYGTPENLDDFCLKAQLVNYIQYRALFEGWSSQMWTKYTGVLIWKNQNPWTGLRGQFYDHLLDQTASFYGCRSAAEPVHVQLNLASYFVEVVNTTSKELSDVAIEASVWDLDGNCPYYKVFKIVSAPPKKVVKISEFKYPKAANPKHVYFLLLKLYTVSDKAVISRNFYWLHLPGKNYTLLEPYRKKQIPLKITCNAVMVGSRYELEVNVHNTSRANLAKNVVQEDEKRDLGLLQKLFSRCVVSADSNRGLKVVEMKGSDSGVAFFLRFSVHNAETEKQDTRILPVHYSDNYFSLVPGESMSFKISFAAPTGMKKSPRVMLQGWNYPDRFSVFG |  |  |  |  | no binding | binds | binds | no binding
